Reference: the supplement of paper PMC4635364
Counter-ions that a name gives are not always drawn. The list shows a part of the results. Repeats in this data set agree poorly, so a single value says little.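 Cells: ReNCell VM human fetal ventral-midbrain neural progenitors, differentiated mitogen-free. Blinded raters compared doublecortin-stained (early neurons) or tyrosine hydroxylase-stained (dopaminergic neurons) images with untreated wells, where 0 means no change. After repeats and both raters were averaged, compounds scoring 2 or above became hits for retesting.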

Experiments:
[1] = system: ReNCell VM; assay: neuronal differentiation score (DCX+ cell fraction vs untreated, manual image score) (score (-3 to 3)); higher = more neuronal differentiation; settings: 2 uM, 2 weeks
[2] = system: ReNCell VM; assay: dopaminergic neuron differentiation score (TH+ cell fraction vs untreated, manual image score) (score (0 to 3)); higher = more TH+ dopaminergic neuron differentiation; settings: 2 uM, 4 weeks, BDNF 10 ng/ml + GDNF 10 ng/ml

## CCCCc1ccc2[nH]c(NC(=O)OC)nc2c1 [Parbendazole]
[1]; library: Prestwick
  neuronal differentiation score: inactive: 0
[2]; library: Prestwick
  dopaminergic neuron differentiation score: inactive: 0

## O=C(O)c1ccccc1
[1]; library: Spectrum
  neuronal differentiation score: inactive: 0
[2]; library: Spectrum
  dopaminergic neuron differentiation score: inactive: 1

## CN1CCC(=C2c3ccccc3Sc3ccccc32)CC1 [Pimethixene maleate]
[1]; library: Prestwick
  neuronal differentiation score: inactive: 0
[2]; library: Prestwick
  dopaminergic neuron differentiation score: inactive: 0

## COc1ccc2c(c1OC)C(=O)O[C@@H]2[C@H]1c2c(cc3c(c2OC)OCO3)CCN1C [Noscapine hydrchloride]
[1]; library: LOPAC
  neuronal differentiation score: inactive: 0
[2]; library: LOPAC
  dopaminergic neuron differentiation score: inactive: 0

## CCCCCCCCCCCCC[N+](C)(C)Cc1ccccc1
[1]; library: Spectrum
  neuronal differentiation score: inactive: 0
[2]; library: Spectrum
  dopaminergic neuron differentiation score: inactive: 0

## CC(=O)Oc1cc(C(F)(F)F)ccc1C(=O)O [Triflusal]
[1]; library: Prestwick
  neuronal differentiation score: inactive: 0
[2]; library: Prestwick
  dopaminergic neuron differentiation score: inactive: 0

## O=C(O)CN(CCN(CC(=O)O)CC(=O)O)CC(=O)O.[Na+].[Na+].[Na+]
[1]; library: Spectrum
  neuronal differentiation score: inactive: 0
[2]; library: Spectrum
  dopaminergic neuron differentiation score: inactive: 0

## CCCCCCc1ccc(O)cc1O.Nc1c2ccccc2nc2ccccc12
[1]; library: Spectrum
  neuronal differentiation score: inactive: 0
[2]; library: Spectrum
  dopaminergic neuron differentiation score: inactive: 0

## CC[C@H](CC[C@@H](C)[C@H]1CC[C@H]2[C@@H]3CC=C4C[C@@H](OC(C)=O)CC[C@]4(C)[C@H]3CC[C@]12C)C(C)C
[1]; library: Spectrum
  neuronal differentiation score: inactive: 0
[2]; library: Spectrum
  dopaminergic neuron differentiation score: inactive: 0

## CN(Cc1ccccc1)C(=O)[C@H](Cc1ccc2ccccc2c1)NC(=O)[C@@H]1CCCN1C(=O)Nc1ccccc1[N+](=O)[O-]
[1]; library: Tocriscreen
  neuronal differentiation score: inactive: 0
[2]; library: Tocriscreen
  dopaminergic neuron differentiation score: inactive: 0

## O=c1oc2c(O)c(O)cc3c(=O)oc4c(O)c(O)cc1c4c23 [Ellagic Acid]
[1]; library: Phytochemical
  neuronal differentiation score: inactive: 0
[2]; library: Phytochemical
  dopaminergic neuron differentiation score: inactive: 0

## COc1cc(N)c(Cl)cc1C(=O)NC1CCN(Cc2ccccc2)CC1 [Clebopride maleate]
[1]; library: Prestwick
  neuronal differentiation score: inactive: 0
[2]; library: Prestwick
  dopaminergic neuron differentiation score: inactive: 0

## NC(=O)NC(=O)Cc1ccccc1
[1]; library: Spectrum
  neuronal differentiation score: inactive: 0
[2]; library: Spectrum
  dopaminergic neuron differentiation score: inactive: 0

## O=C(O)COC(=O)Cc1ccccc1Nc1c(Cl)cccc1Cl
[1]; library: Spectrum
  neuronal differentiation score: inactive: 0
[2]; library: Spectrum
  dopaminergic neuron differentiation score: inactive: 1

## CCC(C)n1ncn(-c2ccc(N3CCN(c4ccc(OCC5COC(Cn6cncn6)(c6ccc(Cl)cc6Cl)O5)cc4)CC3)cc2)c1=O (stereo unspecified) [Itraconazole]
[1]; library: Prestwick
  neuronal differentiation score: inactive: 0
[2]; library: Prestwick
  dopaminergic neuron differentiation score: inactive: 0

## CON
[1]; library: Spectrum
  neuronal differentiation score: inactive: 0
[2]; library: Spectrum
  dopaminergic neuron differentiation score: inactive: 0

## O=c1[nH]ccc2c(S(=O)(=O)N3CCCNCC3)cccc12 [HA 1100 hydrochloride]
[1]; library: Tocriscreen
  neuronal differentiation score: inactive: 0
[2]; library: Tocriscreen
  dopaminergic neuron differentiation score: inactive: 0

## NC(=O)c1ccccc1 [Benzamide]
[1]; library: LOPAC
  neuronal differentiation score: inactive: 0
[2]; library: LOPAC
  dopaminergic neuron differentiation score: inactive: 0
